Measured values from US4038402A, “Method of effecting antihistaminic, antiserotonin and antiallergic actions” (priority 1974, dated 1977).

System: serotonin
Conditions: 30 mg/kg in the stomach; serotonin aerosol

In the case of `CN(C)CCOC(c1ccccc1)c1ccccc1` [Dimedrol], the “increase of the latent period of the intoxication reaction” value is reported as 3-4 times, the “intensity of the intoxication reaction” value is reported as “decreases significantly” and the lethal outcomes is reported as “prevents lethal outcomes”.
